PubChem BioAssay AID1224827 | NIAID | 2016
Assay: 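Retest primary hits on a TNF reporter with six siRNAs per gene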 (follow-up of hits). Cell system: RAW264.7 G9 mouse macrophage reporter clone. Reagents: single siRNA against mouse genes, 100 nM siRNA. Duration: siRNA for 2 days, then LPS about 16 h. Conditions: bacterial lipopolysaccharide (LPS), 10 ng/ml, cells fixed after overnight (about 16 h) stimulation. Detection: 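Imaged nuclear TNF reporter intensity, background removed, scaled per plate and to non-targeting control wells, as z-scores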. Direction: TNF reporter z-score, mean and TNF reporter z-score: higher = stronger Tnf promoter reporter signal; gene median z, three same-vendor siRNAs: higher = stronger Tnf reporter signal for the gene. Rule for the call: 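Active siRNA: replicate-mean z-score of 2 or more, or -2 or less; no calls for control wells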.
In all, the deposit lists about 3,800 reagents; shown is a part drawn at random. About 2,200 of them (57%) were called active. 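Active means a strong reporter change in either direction; calls are per siRNA, not per gene; qiagen siRNAs gave weaker effects.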

no.	gene	PubChem SID	TNF reporter z-score, mean	gene median z, three same-vendor siRNAs	TNF reporter z-score, repeat 1	TNF reporter z-score, repeat 2	activity call
1	Gsc2 (goosecoid homebox 2)	SID315488007	2.64	1.07	2.62	2.66	active
2	Gsc2 (goosecoid homebox 2)	SID315488008	1.07	1.07	1.6	0.532	inactive
3	Gsc2 (goosecoid homebox 2)	SID315488009	-0.586	1.07	0.537	-1.71	inactive
4	Smad1 (SMAD family member 1)	SID315484503	-2.56	-3.34	-2.99	-2.13	active
5	Smad1 (SMAD family member 1)	SID315484504	-3.34	-3.34	-2.99	-3.7	active
6	Smad1 (SMAD family member 1)	SID315484505	-5.31	-3.34	-4.69	-5.94	active
7	Smad1 (SMAD family member 1)	SID315484506	1.72	-0.696	3.84	-0.399	inactive
8	Smad1 (SMAD family member 1)	SID315484507	0.447	-0.696	1.89	-0.992	inactive
9	Smad1 (SMAD family member 1)	SID315484508	-3.55	-0.696	-3.47	-3.63	active
10	Krt6b (keratin 6B)	SID315484464	4.27	0.844	6.46	2.08	active
11	Krt6b (keratin 6B)	SID315484465	0.782	0.844	2.33	-0.762	inactive
12	Krt6b (keratin 6B)	SID315484466	-1.11	0.844	-0.391	-1.83	inactive
13	Pwp2 (PWP2 periodic tryptophan protein homolog (yeast))	SID315487557	-3.76	-4	-3.81	-3.71	active
14	Pwp2 (PWP2 periodic tryptophan protein homolog (yeast))	SID315487558	-3.94	-4	-3.69	-4.19	active
15	Pwp2 (PWP2 periodic tryptophan protein homolog (yeast))	SID315487559	-5.38	-4	-5.39	-5.38	active
16	Pwp2 (PWP2 periodic tryptophan protein homolog (yeast))	SID315487560	-0.000165	-1.51	0.862	-0.863	inactive
17	Pwp2 (PWP2 periodic tryptophan protein homolog (yeast))	SID315487561	0.0229	-1.51	2.2	-2.15	inactive
18	Pwp2 (PWP2 periodic tryptophan protein homolog (yeast))	SID315487562	-2.81	-1.51	-3.13	-2.49	active
19	Or2z9 (olfactory receptor family 2 subfamily Z member 9)	SID315488658	-0.357	-0.774	0.54	-1.25	inactive
20	Or2z9 (olfactory receptor family 2 subfamily Z member 9)	SID315488659	-0.774	-0.774	-0.547	-1	inactive
21	Or2z9 (olfactory receptor family 2 subfamily Z member 9)	SID315488660	-0.97	-0.774	-0.342	-1.6	inactive
22	Ca5a (carbonic anhydrase 5A)	SID315483873	0.134	-1.87	0.0825	0.186	inactive
23	Ca5a (carbonic anhydrase 5A)	SID315483874	-1.87	-1.87	-2.04	-1.7	inactive
24	Ca5a (carbonic anhydrase 5A)	SID315483875	-4.26	-1.87	-3.57	-4.95	active
25	Ca5a (carbonic anhydrase 5A)	SID315483876	4.12	1.29	6.18	2.06	active
26	Ca5a (carbonic anhydrase 5A)	SID315483877	2.59	1.29	4.79	0.395	active
27	Ca5a (carbonic anhydrase 5A)	SID315483878	-0.154	1.29	0.521	-0.829	inactive
28	Mrtfb (myocardin related transcription factor B)	SID315488484	0.523	-4.11	-0.22	1.27	inactive
29	Mrtfb (myocardin related transcription factor B)	SID315488485	-4.4	-4.11	-4.13	-4.67	active
30	Mrtfb (myocardin related transcription factor B)	SID315488486	-4.56	-4.11	-5.03	-4.08	active
31	Mrtfb (myocardin related transcription factor B)	SID315488487	2.03	-0.0678	3.66	0.405	active
32	Mrtfb (myocardin related transcription factor B)	SID315488488	0.454	-0.0678	1.45	-0.541	inactive
33	Mrtfb (myocardin related transcription factor B)	SID315488489	-2.41	-0.0678	-3.09	-1.72	active
34	Eif1 (eukaryotic translation initiation factor 1)	SID315484926	-0.413	-1.62	0.262	-1.09	inactive
35	Eif1 (eukaryotic translation initiation factor 1)	SID315484927	-1.39	-1.62	-2.15	-0.633	inactive
36	Eif1 (eukaryotic translation initiation factor 1)	SID315484928	-4.45	-1.62	-4.94	-3.96	active
37	Eif1 (eukaryotic translation initiation factor 1)	SID315484929	3.86	0.692	6.67	1.04	active
38	Eif1 (eukaryotic translation initiation factor 1)	SID315484930	1.46	0.692	2.86	0.0513	inactive
39	Eif1 (eukaryotic translation initiation factor 1)	SID315484931	-0.214	0.692	0.345	-0.773	inactive
40	Ap1g1 (adaptor protein complex AP-1, gamma 1 subunit)	SID315483711	-0.962	-2.5	-0.986	-0.938	inactive
41	Ap1g1 (adaptor protein complex AP-1, gamma 1 subunit)	SID315483712	-2.5	-2.5	-3.48	-1.52	active
42	Ap1g1 (adaptor protein complex AP-1, gamma 1 subunit)	SID315483713	-4.61	-2.5	-5.65	-3.58	active
43	Ap1g1 (adaptor protein complex AP-1, gamma 1 subunit)	SID315483714	3.58	1.16	6.12	1.03	active
44	Ap1g1 (adaptor protein complex AP-1, gamma 1 subunit)	SID315483715	1.44	1.16	4.4	-1.52	inactive
45	Ap1g1 (adaptor protein complex AP-1, gamma 1 subunit)	SID315483716	-0.741	1.16	1.29	-2.77	inactive
46	Ybey (ybeY metallopeptidase)	SID315488130	-2.26	-3.64	-3.19	-1.32	active
47	Ybey (ybeY metallopeptidase)	SID315488131	-3.63	-3.64	-3.17	-4.09	active
48	Ybey (ybeY metallopeptidase)	SID315488132	-4.52	-3.64	-4.48	-4.55	active
49	Ybey (ybeY metallopeptidase)	SID315488133	7.24	3.73	12.3	2.16	active
50	Ybey (ybeY metallopeptidase)	SID315488134	6.05	3.73	10.4	1.72	active
51	Ybey (ybeY metallopeptidase)	SID315488135	3.2	3.73	5.31	1.1	active
52	Heatr5a (HEAT repeat containing 5A)	SID315488928	-0.916	-3.23	-0.92	-0.913	inactive
53	Heatr5a (HEAT repeat containing 5A)	SID315488929	-3.23	-3.23	-3.11	-3.36	active
54	Heatr5a (HEAT repeat containing 5A)	SID315488930	-3.87	-3.23	-3.45	-4.28	active
55	Heatr5a (HEAT repeat containing 5A)	SID315488931	4.82	0.837	9.32	0.311	active
56	Heatr5a (HEAT repeat containing 5A)	SID315488932	0.728	0.837	2.08	-0.624	inactive
57	Heatr5a (HEAT repeat containing 5A)	SID315488933	0.126	0.837	1.36	-1.11	inactive

6 entries from above, reformatted:
| gene | PubChem SID | TNF reporter z-score, mean | gene median z, three same-vendor siRNAs | TNF reporter z-score, repeat 1 | TNF reporter z-score, repeat 2 | activity call |
| --- | --- | --- | --- | --- | --- | --- |
| Ca5a (carbonic anhydrase 5A) | SID315483876 | 4.12 | 1.29 | 6.18 | 2.06 | active |
| Ca5a (carbonic anhydrase 5A) | SID315483877 | 2.59 | 1.29 | 4.79 | 0.395 | active |
| Ca5a (carbonic anhydrase 5A) | SID315483878 | -0.154 | 1.29 | 0.521 | -0.829 | inactive |
| Mrtfb (myocardin related transcription factor B) | SID315488484 | 0.523 | -4.11 | -0.22 | 1.27 | inactive |
| Mrtfb (myocardin related transcription factor B) | SID315488485 | -4.4 | -4.11 | -4.13 | -4.67 | active |
| Mrtfb (myocardin related transcription factor B) | SID315488486 | -4.56 | -4.11 | -5.03 | -4.08 | active |
